The supplement of paper PMC10849652
This is one part of the list.

Amino acid sequences for entries named in this document (tags omitted). A change or cut given only in a name is not applied to a line headed by its entry.
UniProt Q96EP1: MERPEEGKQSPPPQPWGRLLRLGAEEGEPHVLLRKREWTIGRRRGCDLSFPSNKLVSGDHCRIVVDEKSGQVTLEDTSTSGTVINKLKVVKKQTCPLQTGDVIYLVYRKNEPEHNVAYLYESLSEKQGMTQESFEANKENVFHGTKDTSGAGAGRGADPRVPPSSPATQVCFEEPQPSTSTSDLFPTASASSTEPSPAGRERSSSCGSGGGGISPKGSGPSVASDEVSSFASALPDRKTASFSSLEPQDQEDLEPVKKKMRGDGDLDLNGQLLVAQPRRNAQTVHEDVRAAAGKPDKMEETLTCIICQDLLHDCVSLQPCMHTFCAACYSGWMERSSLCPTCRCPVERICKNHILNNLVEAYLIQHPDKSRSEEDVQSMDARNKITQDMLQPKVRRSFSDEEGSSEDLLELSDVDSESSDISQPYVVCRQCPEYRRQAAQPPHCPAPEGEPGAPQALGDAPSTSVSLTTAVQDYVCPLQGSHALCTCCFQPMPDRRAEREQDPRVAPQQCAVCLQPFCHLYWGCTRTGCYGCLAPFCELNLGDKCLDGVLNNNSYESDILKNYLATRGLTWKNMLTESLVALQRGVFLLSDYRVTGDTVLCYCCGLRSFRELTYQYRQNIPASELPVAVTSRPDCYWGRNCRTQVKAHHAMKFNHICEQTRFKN
UniProt Q8WYQ3: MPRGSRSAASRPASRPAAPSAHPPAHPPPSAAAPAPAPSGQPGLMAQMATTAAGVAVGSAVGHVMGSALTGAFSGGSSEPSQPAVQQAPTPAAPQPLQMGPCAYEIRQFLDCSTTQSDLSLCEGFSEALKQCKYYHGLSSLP
UniProt A8MTT3: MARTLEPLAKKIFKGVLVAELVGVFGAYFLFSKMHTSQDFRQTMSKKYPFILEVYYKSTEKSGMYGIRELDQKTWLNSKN
UniProt Q7Z7K6: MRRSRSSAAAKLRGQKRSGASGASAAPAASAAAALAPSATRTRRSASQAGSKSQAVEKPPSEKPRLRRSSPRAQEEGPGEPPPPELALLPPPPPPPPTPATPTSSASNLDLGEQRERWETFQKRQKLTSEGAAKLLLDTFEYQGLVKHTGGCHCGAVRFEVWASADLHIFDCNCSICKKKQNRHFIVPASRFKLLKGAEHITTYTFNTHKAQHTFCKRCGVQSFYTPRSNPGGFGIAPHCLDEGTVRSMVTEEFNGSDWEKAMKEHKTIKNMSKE
UniProt Q7L2Z9: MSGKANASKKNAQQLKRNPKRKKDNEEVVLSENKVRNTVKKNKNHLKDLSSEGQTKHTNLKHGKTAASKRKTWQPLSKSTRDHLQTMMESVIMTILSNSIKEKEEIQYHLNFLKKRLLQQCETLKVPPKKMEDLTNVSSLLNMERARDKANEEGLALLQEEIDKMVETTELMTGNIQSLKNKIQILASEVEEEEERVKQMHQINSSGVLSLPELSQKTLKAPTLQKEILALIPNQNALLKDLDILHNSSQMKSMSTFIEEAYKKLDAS
UniProt Q6ZMG9: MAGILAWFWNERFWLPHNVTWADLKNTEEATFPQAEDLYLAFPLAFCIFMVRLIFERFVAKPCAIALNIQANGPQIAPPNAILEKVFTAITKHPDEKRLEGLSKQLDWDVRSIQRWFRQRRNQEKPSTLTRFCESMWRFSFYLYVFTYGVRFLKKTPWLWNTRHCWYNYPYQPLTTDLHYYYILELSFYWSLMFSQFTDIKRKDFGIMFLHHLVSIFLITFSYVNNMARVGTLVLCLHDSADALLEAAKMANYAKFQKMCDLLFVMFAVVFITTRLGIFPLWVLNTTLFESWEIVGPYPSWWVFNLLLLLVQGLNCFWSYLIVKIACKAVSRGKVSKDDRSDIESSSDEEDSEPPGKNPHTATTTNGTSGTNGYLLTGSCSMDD
UniProt O14613: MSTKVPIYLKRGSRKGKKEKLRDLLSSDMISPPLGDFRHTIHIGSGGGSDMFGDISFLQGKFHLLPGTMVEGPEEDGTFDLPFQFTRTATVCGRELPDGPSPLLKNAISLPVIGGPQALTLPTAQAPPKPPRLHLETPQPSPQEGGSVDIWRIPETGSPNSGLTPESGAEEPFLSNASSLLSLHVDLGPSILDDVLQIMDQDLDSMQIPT
UniProt Q5VXU3: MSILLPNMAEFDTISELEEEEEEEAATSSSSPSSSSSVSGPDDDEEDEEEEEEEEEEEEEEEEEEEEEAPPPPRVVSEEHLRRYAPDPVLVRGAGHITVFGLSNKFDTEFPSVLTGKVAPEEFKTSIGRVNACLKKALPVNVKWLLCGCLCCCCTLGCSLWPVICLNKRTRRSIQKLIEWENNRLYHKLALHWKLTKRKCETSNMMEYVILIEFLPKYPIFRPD
UniProt Q9UKJ5: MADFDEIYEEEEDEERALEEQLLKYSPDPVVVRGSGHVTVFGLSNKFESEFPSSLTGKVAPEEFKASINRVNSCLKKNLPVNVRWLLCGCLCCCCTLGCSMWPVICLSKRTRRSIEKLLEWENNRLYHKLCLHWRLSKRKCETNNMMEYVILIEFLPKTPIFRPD
UniProt O14519: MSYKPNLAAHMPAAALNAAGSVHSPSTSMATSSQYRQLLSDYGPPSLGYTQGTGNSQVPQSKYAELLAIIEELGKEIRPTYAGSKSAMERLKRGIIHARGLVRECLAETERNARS
UniProt Q8TDI0: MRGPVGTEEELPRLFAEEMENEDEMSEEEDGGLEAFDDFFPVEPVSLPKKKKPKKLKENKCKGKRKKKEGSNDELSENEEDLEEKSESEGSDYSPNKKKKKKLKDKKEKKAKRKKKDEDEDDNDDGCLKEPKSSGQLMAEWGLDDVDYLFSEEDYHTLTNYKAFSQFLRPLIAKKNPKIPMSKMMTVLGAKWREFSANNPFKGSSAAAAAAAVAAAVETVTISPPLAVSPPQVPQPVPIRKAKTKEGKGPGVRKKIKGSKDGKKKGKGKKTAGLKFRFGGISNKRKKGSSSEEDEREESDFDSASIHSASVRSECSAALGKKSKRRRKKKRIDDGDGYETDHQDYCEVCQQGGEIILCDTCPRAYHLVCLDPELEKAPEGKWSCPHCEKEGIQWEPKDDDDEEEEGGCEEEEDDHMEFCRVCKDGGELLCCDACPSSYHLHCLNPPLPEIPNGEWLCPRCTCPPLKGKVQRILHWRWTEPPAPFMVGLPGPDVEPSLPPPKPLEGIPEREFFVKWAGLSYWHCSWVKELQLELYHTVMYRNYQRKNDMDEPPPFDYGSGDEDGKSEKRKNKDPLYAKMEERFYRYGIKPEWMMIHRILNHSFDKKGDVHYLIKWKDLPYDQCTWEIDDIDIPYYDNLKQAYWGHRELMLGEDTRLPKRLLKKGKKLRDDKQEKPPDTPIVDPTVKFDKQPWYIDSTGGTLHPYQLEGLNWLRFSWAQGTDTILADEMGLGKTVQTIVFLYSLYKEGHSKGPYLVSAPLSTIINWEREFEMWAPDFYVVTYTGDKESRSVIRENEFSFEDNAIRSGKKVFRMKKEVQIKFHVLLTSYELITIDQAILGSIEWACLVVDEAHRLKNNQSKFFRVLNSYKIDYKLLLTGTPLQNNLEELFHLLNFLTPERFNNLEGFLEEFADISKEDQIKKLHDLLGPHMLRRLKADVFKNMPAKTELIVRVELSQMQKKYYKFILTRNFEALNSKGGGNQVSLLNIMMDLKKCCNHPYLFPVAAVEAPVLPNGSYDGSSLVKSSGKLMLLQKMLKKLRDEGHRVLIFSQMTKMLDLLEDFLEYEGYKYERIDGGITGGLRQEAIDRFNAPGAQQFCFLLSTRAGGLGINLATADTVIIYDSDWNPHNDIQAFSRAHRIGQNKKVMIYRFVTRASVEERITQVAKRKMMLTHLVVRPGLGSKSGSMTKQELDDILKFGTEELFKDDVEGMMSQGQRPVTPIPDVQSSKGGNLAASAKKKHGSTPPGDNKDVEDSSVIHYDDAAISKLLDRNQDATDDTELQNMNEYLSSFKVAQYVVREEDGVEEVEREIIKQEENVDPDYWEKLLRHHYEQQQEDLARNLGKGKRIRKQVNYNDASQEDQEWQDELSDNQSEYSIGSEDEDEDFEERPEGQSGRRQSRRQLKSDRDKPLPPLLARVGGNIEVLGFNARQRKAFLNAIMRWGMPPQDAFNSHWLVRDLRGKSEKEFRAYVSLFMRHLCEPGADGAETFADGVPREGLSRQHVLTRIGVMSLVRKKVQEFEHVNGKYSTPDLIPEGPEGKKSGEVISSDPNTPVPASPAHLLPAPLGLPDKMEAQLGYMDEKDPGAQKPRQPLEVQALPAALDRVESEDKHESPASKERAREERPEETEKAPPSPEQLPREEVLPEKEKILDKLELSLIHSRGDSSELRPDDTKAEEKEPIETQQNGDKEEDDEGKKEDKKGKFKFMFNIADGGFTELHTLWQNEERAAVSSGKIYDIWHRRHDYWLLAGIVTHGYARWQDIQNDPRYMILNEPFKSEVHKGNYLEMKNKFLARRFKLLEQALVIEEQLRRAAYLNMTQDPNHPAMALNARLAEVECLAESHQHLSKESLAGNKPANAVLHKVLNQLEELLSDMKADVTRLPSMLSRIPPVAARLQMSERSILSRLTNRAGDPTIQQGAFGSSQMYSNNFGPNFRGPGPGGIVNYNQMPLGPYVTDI
UniProt Q86WJ1: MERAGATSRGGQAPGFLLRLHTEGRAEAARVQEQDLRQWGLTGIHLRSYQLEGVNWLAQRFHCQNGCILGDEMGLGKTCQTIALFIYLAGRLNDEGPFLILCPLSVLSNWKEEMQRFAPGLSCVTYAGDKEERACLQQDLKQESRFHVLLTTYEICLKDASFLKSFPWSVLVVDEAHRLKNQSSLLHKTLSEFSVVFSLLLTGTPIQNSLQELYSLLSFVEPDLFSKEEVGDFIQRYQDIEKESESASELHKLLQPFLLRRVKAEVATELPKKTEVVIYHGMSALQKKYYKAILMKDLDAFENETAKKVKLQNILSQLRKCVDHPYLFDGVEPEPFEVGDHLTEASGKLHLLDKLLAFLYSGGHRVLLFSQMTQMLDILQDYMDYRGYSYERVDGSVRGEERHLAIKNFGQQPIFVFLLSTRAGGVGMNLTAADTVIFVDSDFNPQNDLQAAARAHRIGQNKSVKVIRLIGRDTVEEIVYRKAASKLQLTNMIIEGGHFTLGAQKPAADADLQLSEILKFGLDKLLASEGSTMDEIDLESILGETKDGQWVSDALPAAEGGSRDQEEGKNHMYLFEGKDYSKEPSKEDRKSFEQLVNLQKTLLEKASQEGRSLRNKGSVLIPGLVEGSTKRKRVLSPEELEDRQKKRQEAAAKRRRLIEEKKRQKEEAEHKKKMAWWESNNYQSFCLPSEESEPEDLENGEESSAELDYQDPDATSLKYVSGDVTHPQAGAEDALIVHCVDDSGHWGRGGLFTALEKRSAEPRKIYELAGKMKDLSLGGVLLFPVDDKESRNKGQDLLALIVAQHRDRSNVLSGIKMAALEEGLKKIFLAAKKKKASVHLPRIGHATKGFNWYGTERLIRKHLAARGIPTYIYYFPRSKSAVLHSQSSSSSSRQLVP
UniProt P49918: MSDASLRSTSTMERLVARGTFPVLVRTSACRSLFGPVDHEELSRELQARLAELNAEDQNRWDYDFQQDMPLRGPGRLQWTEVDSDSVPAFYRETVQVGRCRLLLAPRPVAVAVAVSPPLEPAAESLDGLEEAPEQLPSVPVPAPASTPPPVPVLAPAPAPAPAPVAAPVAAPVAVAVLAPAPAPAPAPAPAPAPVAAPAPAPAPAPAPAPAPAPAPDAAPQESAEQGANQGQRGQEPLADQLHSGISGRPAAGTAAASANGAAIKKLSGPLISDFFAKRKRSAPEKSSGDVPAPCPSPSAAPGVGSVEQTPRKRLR
UniProt A8MT69: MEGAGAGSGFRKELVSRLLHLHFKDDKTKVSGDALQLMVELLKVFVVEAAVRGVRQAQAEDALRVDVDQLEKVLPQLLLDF
UniProt P00751, whole entry, looked up: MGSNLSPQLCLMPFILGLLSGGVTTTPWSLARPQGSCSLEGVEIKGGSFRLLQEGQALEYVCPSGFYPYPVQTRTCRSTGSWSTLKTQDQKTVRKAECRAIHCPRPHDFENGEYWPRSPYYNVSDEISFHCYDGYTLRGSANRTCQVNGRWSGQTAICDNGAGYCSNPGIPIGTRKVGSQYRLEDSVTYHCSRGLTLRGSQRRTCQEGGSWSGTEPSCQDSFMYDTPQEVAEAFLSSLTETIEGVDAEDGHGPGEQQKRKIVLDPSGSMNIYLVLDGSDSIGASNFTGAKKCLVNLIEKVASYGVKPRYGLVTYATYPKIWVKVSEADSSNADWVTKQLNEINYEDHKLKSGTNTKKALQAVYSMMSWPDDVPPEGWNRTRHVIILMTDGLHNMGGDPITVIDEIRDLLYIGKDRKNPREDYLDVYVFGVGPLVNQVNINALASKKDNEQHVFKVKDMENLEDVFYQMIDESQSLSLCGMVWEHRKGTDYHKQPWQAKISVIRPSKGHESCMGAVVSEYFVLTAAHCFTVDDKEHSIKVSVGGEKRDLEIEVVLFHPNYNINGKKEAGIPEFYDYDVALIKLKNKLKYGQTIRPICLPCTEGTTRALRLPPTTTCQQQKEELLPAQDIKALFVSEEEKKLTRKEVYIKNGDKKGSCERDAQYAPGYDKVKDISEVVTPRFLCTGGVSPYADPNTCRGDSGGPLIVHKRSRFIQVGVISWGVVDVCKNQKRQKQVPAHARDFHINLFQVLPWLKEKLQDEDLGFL

What follows are targets tested with COC1=CC=C(C=C1)CN2C=CC3=C2C=C(C=C3)C(=O)NO (assay: log2 fold change, soluble protein after heating vs DMSO (PISA); higher = thermal stabilisation; K562 cells, 10 uM, 30 min; active = over 0.2 and 3.5 SD of the protein, either way, in both replicates (recomputed)).
Outline: (§1)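 K562 cells at 2×10^6 cells/mL were exposed to 10 μM compound for 30 min, then aliquots were heated for 3 min across 48°C-58°C, pooled, and extracted in PBS containing 0.5% NP-40 at 4°C. The supernatant after 21,000xg for 90 min was taken as soluble protein and measured by TMTpro 16plex LC-MS/MS with channel sums equalised. Thermal stability is reported relative to control samples, with values from duplicates. Fold changes are given on a log2 scale.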

log2 fold change, inactive:
CHFR (UniProt Q96EP1) 0.014
CDH2 (UniProt P19022) -0.128
CHCHD10 (UniProt Q8WYQ3) -0.008
CENPK (UniProt Q9BS16) 0.053
CEBPZOS (UniProt A8MTT3) 0.111

Each target was assayed with CON(C)C(=O)N1N=C(c2cc(F)ccc2F)S[C@@]1(CCCN)c1ccccc1 [filanesib] in the same assay as above.
Outline: as §1

log2 fold change, inactive:
CEP57 (UniProt Q86XR8) 0.152
CEND1 (UniProt Q8N111) -0.031
CDC42SE2 (UniProt Q9NRR3) -0.004
CENPV (UniProt Q7Z7K6) 0.646
CENPQ (UniProt Q7L2Z9) 0.038
CERS6 isoform 2 (UniProt Q6ZMG9) -0.028
CDCA8 (UniProt Q53HL2) 0.032
CDC42EP2 (UniProt O14613) 0.17
CDK19 (UniProt Q9BWU1) 0.154
CEBPZ (UniProt Q03701) 0.38
CHIC1 (UniProt Q5VXU3) 0.143
CHIC2 (UniProt Q9UKJ5) 0.018
CDK2AP1 (UniProt O14519) -0.073
CHD5 (UniProt Q8TDI0) 0.052
CHD1L (UniProt Q86WJ1) 0.162
CDKN1C (UniProt P49918) -0.111
CDC42EP4 (UniProt Q9H3Q1) 0.02
CENPX (UniProt A8MT69) 0.115
CFB (UniProt P00751) 0.149
CDH5 (UniProt P33151) 0.298

Fetched one by one from above, 2 records:
log2 fold change, inactive:
CHIC1 (UniProt Q5VXU3) 0.143
CENPX (UniProt A8MT69) 0.115
